Measurements published in article PMC5387032 (Photosynthesis Research, 2017).

Assays:
[1] = molecular target: RbcL from Synechococcus elongatus PCC 7942, made in E. coli (Synechococcus elongatus PCC 7942); test: native gel or EMSA; raf1 from Synechocystis co-expressed with rbcL genes in E. coli (or rbcL alone); crude extracts separated by native PAGE and probed with anti-RbcL or anti-RAF1 antibodies
[2] = molecular target: RbcLTe–RbcX_(6803) complex (Thermosynechococcus elongatus | Synechocystis sp. PCC 6803); test: native gel or EMSA; purified proteins or complexes (2.5 µg, or 5 µg where in excess) mixed, incubated 10 min at room temperature, native PAGE, Coomassie-stained; both purified

binding [1]: binds
binding [2]: binds
B1: RAF1 from Synechocystis sp. PCC 6803, untagged, made in E. coli (protein)
chain: MTHSPESNPTVSAAEAAELIRSLLHKEGTWVDWGKKCQQLQKAGYGAEEIFEQSGFQKVQQNLVIVASQVYESLVKQGIDETVLSYYRGPKSDVLYELRILNHQQRAIAAVEAQQKNLAADEAKELAKAFQEFGYLSQLPEGFTDHPGDALAYQCWKLARQKKNLPERTRLIVKGLKFAHSPNARQAIEKLLTDLTAQPSRKAPLVPVFRLEEDQEAARLIPVAGTFPLQPQAVQAVQSLEQVEPFGLVSYQGEGAVVPVPQWQAILTAEDPVAIFCPAGQVSESLARKDEQVLVVVDRSKKIWNDGSYFLLNQGETVAIQWCETEPEREILAQVVLVLRPKKIFDANNLREPWQMDD

These are yes or no findings as the source states them, for the method shown. Binding calls can cover weak binding; strength is not graded here. Where a sequence is shown, tags or fusion partners need not be part of it.
